This is an account of results in paper PMC8805583, “Discovery of Herbacetin as a Novel SGK1 Inhibitor to Alleviate Myocardial Hypertrophy” (Advanced Science, 2021).

By UniProt entry, the sequences of proteins in these tests, tags left out.
UniProt Q06226: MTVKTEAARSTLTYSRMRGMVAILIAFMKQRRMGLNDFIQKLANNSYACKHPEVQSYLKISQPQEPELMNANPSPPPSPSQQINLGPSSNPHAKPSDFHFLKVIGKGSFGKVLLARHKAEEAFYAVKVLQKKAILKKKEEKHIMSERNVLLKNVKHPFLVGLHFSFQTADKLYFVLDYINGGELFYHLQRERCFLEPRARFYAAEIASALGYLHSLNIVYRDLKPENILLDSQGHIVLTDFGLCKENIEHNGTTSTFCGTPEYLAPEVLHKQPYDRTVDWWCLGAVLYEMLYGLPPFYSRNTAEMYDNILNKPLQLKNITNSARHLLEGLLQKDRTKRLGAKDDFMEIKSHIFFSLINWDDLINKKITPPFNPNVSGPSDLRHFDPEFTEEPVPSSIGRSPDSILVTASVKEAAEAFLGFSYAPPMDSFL
UniProt G3V7R4: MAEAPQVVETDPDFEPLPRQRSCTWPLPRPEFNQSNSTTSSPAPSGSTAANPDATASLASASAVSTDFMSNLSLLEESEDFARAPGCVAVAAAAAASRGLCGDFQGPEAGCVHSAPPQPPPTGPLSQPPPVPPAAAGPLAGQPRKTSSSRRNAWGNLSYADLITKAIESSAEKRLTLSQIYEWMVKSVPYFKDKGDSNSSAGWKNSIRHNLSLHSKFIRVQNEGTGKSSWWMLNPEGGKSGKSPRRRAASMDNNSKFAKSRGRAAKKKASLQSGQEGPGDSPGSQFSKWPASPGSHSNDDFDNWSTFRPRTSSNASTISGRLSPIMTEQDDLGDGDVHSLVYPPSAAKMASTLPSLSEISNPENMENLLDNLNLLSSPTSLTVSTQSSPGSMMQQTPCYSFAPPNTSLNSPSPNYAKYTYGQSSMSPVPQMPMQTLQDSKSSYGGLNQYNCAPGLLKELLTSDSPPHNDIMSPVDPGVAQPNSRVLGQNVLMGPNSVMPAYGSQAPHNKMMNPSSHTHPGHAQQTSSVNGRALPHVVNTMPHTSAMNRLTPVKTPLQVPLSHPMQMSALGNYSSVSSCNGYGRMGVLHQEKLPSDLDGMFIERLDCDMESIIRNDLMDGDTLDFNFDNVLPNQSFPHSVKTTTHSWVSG

Results are given in words; binding and its absence hold for the method and conditions named. In cells and extracts the contact can be indirect. Some results given as binding are weak or reduced against the parent protein; the word gives no strength.

The target of the assay is Serum/glucocorticoid regulated kinase 1 (rat (endogenous in neonatal rat cardiomyocytes)) (UniProt Q06226). Put plainly: co-IP; endogenous interaction assay; neonatal rat cardiomyocytes treated with HBT or vehicle for 24 h, lysed; extracts immunoprecipitated with anti-SGK1 or anti-IgG antibody and protein A/G beads, western blot.

For the substance “forkhead box protein O1 (from UniProt G3V7R4 1-649)”, the binding result is reported as “binds”.
